Measurements reported in the supplement of paper PMC11438910.
Some of the results follow. Only a few entries rise above the background.

Experiments:
Assay in all cases: fluorescence intensity of antibody binding to polysaccharide-coupled beads; higher = stronger binding
[1] = biological target: pneumococcal polysaccharide Pn11F
Method: (§1)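 Recombinant rhesus-murine chimeric IgG1 antibodies were tested against antigen-coupled MagPlex beads in a 96-plex Luminex direct immunoassay (dLIA). The beads carried pneumococcal capsular polysaccharides of 93 serotypes plus C-polysaccharides. Antibody was added at 0.1–12,500 ng/mL for 1 h, then PE anti-mouse IgG, and net MFI was read on a Bio-Plex 3D. Only the rhesus variable regions are printed; constant regions are murine IgG1/kappa/lambda, and the signal peptide is MGWSCIILFLVATATGVHS.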

[2] = biological target: pneumococcal polysaccharide Pn12A
Method: as §1

[3] = biological target: pneumococcal polysaccharide Pn12B
Method: as §1

[4] = biological target: pneumococcal polysaccharide Pn12F
Method: as §1

[5] = biological target: pneumococcal polysaccharide Pn13
Method: as §1

[6] = biological target: pneumococcal polysaccharide Pn14
Method: as §1

[7] = biological target: pneumococcal polysaccharide Pn15A
Method: as §1

[8] = biological target: pneumococcal polysaccharide Pn15B
Method: as §1

[9] = biological target: pneumococcal polysaccharide Pn15C
Method: as §1

[10] = biological target: pneumococcal polysaccharide Pn15F
Method: as §1

[11] = biological target: pneumococcal polysaccharide Pn16A
Method: as §1

[12] = biological target: pneumococcal polysaccharide Pn16F
Method: as §1

[13] = antibody concentration 2.8593 ng/mL
[14] = antibody concentration 15.2894 ng/mL
[15] = antibody concentration 81.7561 ng/mL
[16] = antibody concentration 437.17 ng/mL
[17] = antibody concentration 2337.65 ng/mL
[18] = antibody concentration 12500 ng/mL
[19] = antibody concentration 0.1 ng/mL
[20] = antibody concentration 0.534724 ng/mL

B1: 4-99.5 (protein)
chain 1: QVQLQESGPGLVKPSETLSLTCAVSGYSISSGYYWGWIRQPPGKGLEYIGYISGSSGSPYYNPSLKSRVTISKDTSKNQFSLKLSSATAADTAVYYCARRQVGIGFDYWGQGVLVTVSS
chain 2: QAAPTQPPSVSGSPGQSVTISCTGTSSDIGYYNAVSWYQQHPGKAPKLMIYEVSKRPSGVSDRFSGSKSGNTASLTISGLQAEDEADYYCSSYAGSNTYIFGAGTRLTVL
fluorescence intensity [1, 13]: 14 MFI
fluorescence intensity [1, 14]: 14.8 MFI
fluorescence intensity [1, 15]: 15.5 MFI
fluorescence intensity [1, 16]: 14 MFI
fluorescence intensity [1, 17]: 14.5 MFI
fluorescence intensity [1, 18]: 20 MFI
fluorescence intensity [2, 19]: 15 MFI
fluorescence intensity [2, 20]: 15.5 MFI
fluorescence intensity [2, 13]: 17 MFI
fluorescence intensity [2, 14]: 15 MFI
fluorescence intensity [2, 15]: 15 MFI
fluorescence intensity [2, 16]: 14.8 MFI
fluorescence intensity [2, 17]: 18 MFI
fluorescence intensity [2, 18]: 30.5 MFI
fluorescence intensity [3, 19]: 19 MFI
fluorescence intensity [3, 20]: 16 MFI
fluorescence intensity [3, 13]: 16.5 MFI
fluorescence intensity [3, 14]: 15.5 MFI
fluorescence intensity [3, 15]: 15.8 MFI
fluorescence intensity [3, 16]: 15.5 MFI
fluorescence intensity [3, 17]: 18.5 MFI
fluorescence intensity [3, 18]: 28.5 MFI
fluorescence intensity [4, 19]: 18.5 MFI
fluorescence intensity [4, 20]: 16.5 MFI
fluorescence intensity [4, 13]: 18 MFI
fluorescence intensity [4, 14]: 20 MFI
fluorescence intensity [4, 15]: 17.5 MFI
fluorescence intensity [4, 16]: 18.5 MFI
fluorescence intensity [4, 17]: 21.2 MFI
fluorescence intensity [4, 18]: 27.5 MFI
fluorescence intensity [5, 19]: 18.8 MFI
fluorescence intensity [5, 20]: 20.5 MFI
fluorescence intensity [5, 13]: 19.5 MFI
fluorescence intensity [5, 14]: 18 MFI
fluorescence intensity [5, 15]: 18.5 MFI
fluorescence intensity [5, 16]: 19.5 MFI
fluorescence intensity [5, 17]: 19.5 MFI
fluorescence intensity [5, 18]: 28 MFI
fluorescence intensity [6, 19]: 13.8 MFI
fluorescence intensity [6, 20]: 15.5 MFI
fluorescence intensity [6, 13]: 15 MFI
fluorescence intensity [6, 14]: 16.2 MFI
fluorescence intensity [6, 15]: 15 MFI
fluorescence intensity [6, 16]: 15.5 MFI
fluorescence intensity [6, 17]: 16.2 MFI
fluorescence intensity [6, 18]: 43 MFI
fluorescence intensity [7, 19]: 13 MFI
fluorescence intensity [7, 20]: 12.5 MFI
fluorescence intensity [7, 13]: 13.5 MFI
fluorescence intensity [7, 14]: 13 MFI
fluorescence intensity [7, 15]: 13.2 MFI
fluorescence intensity [7, 16]: 13 MFI
fluorescence intensity [7, 17]: 15 MFI
fluorescence intensity [7, 18]: 16 MFI
fluorescence intensity [8, 19]: 18.2 MFI
fluorescence intensity [8, 20]: 20 MFI
fluorescence intensity [8, 13]: 19.2 MFI
fluorescence intensity [8, 14]: 18.5 MFI
fluorescence intensity [8, 15]: 20.2 MFI
fluorescence intensity [8, 16]: 21 MFI
fluorescence intensity [8, 17]: 21 MFI
fluorescence intensity [8, 18]: 25.5 MFI
fluorescence intensity [9, 19]: 18.5 MFI
fluorescence intensity [9, 20]: 19 MFI
fluorescence intensity [9, 13]: 17.5 MFI
fluorescence intensity [9, 14]: 16 MFI
fluorescence intensity [9, 15]: 16.5 MFI
fluorescence intensity [9, 16]: 20.8 MFI
fluorescence intensity [9, 17]: 18.5 MFI
fluorescence intensity [9, 18]: 22 MFI
fluorescence intensity [10, 19]: 17.2 MFI
fluorescence intensity [10, 20]: 17.5 MFI
fluorescence intensity [10, 13]: 17.5 MFI
fluorescence intensity [10, 14]: 17.5 MFI
fluorescence intensity [10, 15]: 18 MFI
fluorescence intensity [10, 16]: 18.8 MFI
fluorescence intensity [10, 17]: 18 MFI
fluorescence intensity [10, 18]: 25.5 MFI
fluorescence intensity [11, 19]: 16 MFI
fluorescence intensity [11, 20]: 14.5 MFI
fluorescence intensity [11, 13]: 13 MFI
fluorescence intensity [11, 14]: 14 MFI
fluorescence intensity [11, 15]: 15 MFI
fluorescence intensity [11, 16]: 15 MFI
fluorescence intensity [11, 17]: 16.5 MFI
fluorescence intensity [11, 18]: 20.5 MFI
fluorescence intensity [12, 19]: 25.5 MFI
fluorescence intensity [12, 20]: 23.8 MFI
fluorescence intensity [12, 13]: 25.8 MFI
fluorescence intensity [12, 14]: 23.5 MFI
